The source of these data is paper PMC4829694.

Sequences of proteins named here, by UniProt entry; tags and fusion partners are left off.
UniProt P23772: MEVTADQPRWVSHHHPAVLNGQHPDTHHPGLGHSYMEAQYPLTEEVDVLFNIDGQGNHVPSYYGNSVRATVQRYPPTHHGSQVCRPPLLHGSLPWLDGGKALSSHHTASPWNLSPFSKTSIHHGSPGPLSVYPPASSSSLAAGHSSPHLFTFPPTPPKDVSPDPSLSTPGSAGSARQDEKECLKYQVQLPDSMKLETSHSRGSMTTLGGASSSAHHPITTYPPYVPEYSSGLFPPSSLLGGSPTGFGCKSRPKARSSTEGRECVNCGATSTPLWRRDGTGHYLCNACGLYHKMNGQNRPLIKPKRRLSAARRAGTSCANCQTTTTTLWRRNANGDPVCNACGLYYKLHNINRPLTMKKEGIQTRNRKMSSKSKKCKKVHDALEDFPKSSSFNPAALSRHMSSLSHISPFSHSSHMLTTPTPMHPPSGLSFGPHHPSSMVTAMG
UniProt P31749: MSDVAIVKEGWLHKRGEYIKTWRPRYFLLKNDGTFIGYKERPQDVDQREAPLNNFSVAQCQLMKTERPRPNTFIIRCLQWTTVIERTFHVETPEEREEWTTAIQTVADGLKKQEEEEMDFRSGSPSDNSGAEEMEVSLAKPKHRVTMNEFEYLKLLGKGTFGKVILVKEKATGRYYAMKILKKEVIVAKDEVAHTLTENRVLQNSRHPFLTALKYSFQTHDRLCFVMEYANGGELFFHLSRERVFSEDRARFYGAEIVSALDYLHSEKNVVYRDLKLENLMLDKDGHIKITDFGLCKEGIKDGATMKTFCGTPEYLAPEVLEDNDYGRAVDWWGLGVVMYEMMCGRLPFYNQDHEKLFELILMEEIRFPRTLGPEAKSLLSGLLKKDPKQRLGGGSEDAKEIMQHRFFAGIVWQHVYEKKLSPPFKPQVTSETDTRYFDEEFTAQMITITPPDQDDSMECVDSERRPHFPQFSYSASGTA

The test has as its target Flag-tagged Gata3 wild type (UniProt P23772). In words: affinity purification with mass spectrometry; Flag-tagged Gata3 complexes immunopurified from 293T cells, resolved by SDS-PAGE (in-gel kinase assay with GST-Gata3 as substrate); the 55-kDa band analysed by LC-MS/MS.

Results are given in words; binding and its absence hold for the method and conditions named. In cells and extracts the contact can be indirect. A yes stands for co-enrichment or nearness to the bait. Other partners may have been found.

As for “Akt1 (endogenous, found in Gata3 complexes from 293T cells) (from UniProt P31749 1-480) (enzyme)”, the binding entry was “binds”.
